These results are taken from patent US20250051788A1.

Results are given in words; binding and its absence hold for the method and conditions named. A result given as binding can be weak or reduced; the word gives no strength. Sequences can lack the tags named with a protein.

For this test, the target named is Multidrug resistance protein (AT1G67700) (Arabidopsis thaliana). In words: anti-FLAG IP-MS of FLAG-BD plants.

B1: FLAG-BD (FLAG-tagged minimal Arabidopsis BRN1 protein that contains only the first two RRM domains) (protein)
chain: MDYKDDDDKGIHGVPAAAEAKEENREKNEEEESVKLFVGQIPKHMSESQLLTLFQEFAVVDEVNIIKDKITRASRGCCFLLCPSREEADKLVNACHNKKTLPGANSLLQVKYADGELERLEHKLFVGMLPKNVSEAEVQSLFSKYGTIKDLQILRGAQQTSKGCAFLKYETKEQAVSAMESINGKHKMEGSTVPLVVKWADTERERHTRRLQKAQ
B1: the binding entry was “binds”.
